{"source": "patent US20190167568A1", "about": "“Transdermal Drug Delivery System and Method for Using Same” (SENJU USA, INC., priority 2016, published 2019)", "assay": "physchem", "settings": "pH 8", "from_the_text": "In the present invention, the distribution coefficient (octanol/water distribution coefficient) may be adopted as the index of “water soluble” and “liposoluble” in the “water soluble steroid” and the “liposoluble steroid.” The distribution coefficient can be expressed in log D in consideration of the influence of pH, and water solubility is indicated by a minus value while liposolubility is indicated by a plus value.\nThe distribution coefficient can be obtained according to the method of JIS […] or JIS […]."}
{"smiles": "C[C@H]1C[C@H]2[C@@H]3CCC4=CC(=O)C=C[C@]4(C)[C@@]3(F)[C@@H](O)C[C@]2(C)[C@@]1(O)C(=O)COP(=O)([O-])[O-].[Na+].[Na+]", "note": "[betamethasone sodium phosphate]", "values": [{"measurement": "distribution coefficient (log D)", "value": "−5"}]}
{"smiles": "C[C@@H]1C[C@H]2[C@@H]3CCC4=CC(=O)C=C[C@]4(C)[C@@]3(F)[C@@H](O)C[C@]2(C)[C@@]1(O)C(=O)COP(=O)(O)O", "note": "[dexamethasone sodium phosphate]", "values": [{"measurement": "logD", "value": -5}]}
